Measurements from patent publication US20230241027A1, “DIALKYL T[…] THEIR […] USES” (CAAMTECH, INC., priority 2020, published 2023).
At least one structure is not confirmed: it was looked up by name or label, or the drawing left a doubt.

Assay: hydrolysis of the compound into its active (dissolved in water, followed by NMR)

In the case of CN(C)CCc1c[nH]c2cccc(OP(=O)(O)O)c12 [Psilocybin], the “kobs (s^-1) × 10^-6” value (observed rate constant of hydrolysis, Table 2) is reported as <1 s^-1 × 10^-6 and the Hydrolysis rate (rate of hydrolysis into the active (indol-4-ol/indol-5-ol, psilocin for psilocybin), unit not given, Table 1) is reported as 0.03.
